This is one part of the list. Single values are uncertain, as repeats are few or missing.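 Imaging used 1,536-well plates; nuclei positive for cleaved PARP by antibody were divided by total DNA-stained nuclei to yield the apoptosis fraction. Doses for screening kept most cells viable, and cell lines differ markedly in resting and induced cleaved-PARP levels.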

From the supplement of paper PMC4604168 (melanoma cell lines) come the findings set out here.

This test concerns WM451Lu. Put plainly: cleaved PARP positive nuclei fraction relative to DMSO control; melanoma cells; higher = more apoptosis. To be noted: library dose: low library concentration; 72 h.
`Cc1ccc(Nc2nccc(N(C)c3ccc4c(C)n(C)nc4c3)n2)cc1S(N)(=O)=O` [Pazopanib] + CN(NC(=O)CC(=O)NN(C)C(=S)c1ccccc1)C(=S)c1ccccc1 [STA4783] (first compound 0.4 µM, partner dose 0.006 µM): the “cleaved PARP positive nuclei fraction” value was 80.9%.
As to `Cc1cn(-c2cc(NC(=O)c3ccc(C)c(Nc4nccc(-c5cccnc5)n4)c3)cc(C(F)(F)F)c2)cn1` [nilotinib] + COc1ccc(COc2ccc(Cc3cnc(N)nc3N)cc2OC)cc1 [GW2580] (first compound 0.2 µM, partner dose 1 µM), the “cleaved PARP positive nuclei fraction” value was found to be 119%.
For the compound `COc1cc([C@@H]2c3cc4c(cc3[C@@H](O[C@@H]3O[C@@H]5CO[C@@H](C)O[C@H]5[C@H](O)[C@H]3O)[C@H]3COC(=O)[C@H]23)OCO4)cc(OC)c1O` [etoposide] + C[C@@H]1CCN(C(=O)CC#N)C[C@@H]1N(C)c1ncnc2[nH]ccc12 [CP690550] (first compound 0.02 µM, partner dose 1 µM), the “cleaved PARP positive nuclei fraction” value stood at 84.4%.
Turning to `Cc1cn(-c2cc(NC(=O)c3ccc(C)c(Nc4nccc(-c5cccnc5)n4)c3)cc(C(F)(F)F)c2)cn1` [nilotinib] + Cn1cc(/C=C2\C(=O)Nc3cccnc32)c2ccccc21 [GW441756] (first compound 0.2 µM, partner dose 0.4 µM), the “cleaved PARP positive nuclei fraction” value is 82.2%.
Take `Cc1cn(-c2cc(NC(=O)c3ccc(C)c(Nc4nccc(-c5cccnc5)n4)c3)cc(C(F)(F)F)c2)cn1` [nilotinib] + O=c1cc(-c2cccc3c2Sc2ccccc2S3)oc(N2CCOCC2)c1 [KU55933] (first compound 0.2 µM, partner dose 1 µM): the “cleaved PARP positive nuclei fraction” value is 20.2%.
As for `CC[C@]1(O)C[C@H]2CN(CCc3c([nH]c4ccccc34)[C@@](C(=O)OC)(c3cc4c(cc3OC)N(C=O)[C@H]3[C@@](O)(C(=O)OC)[C@H](OC(C)=O)[C@]5(CC)C=CCN6CC[C@]43[C@@H]65)C2)C1` [vincristine] + NC(=O)Nc1cc(-c2cccc(F)c2)sc1C(=O)N[C@H]1CCCNC1 [AZD7762] (first compound 0.0001 µM, partner dose 0.02 µM), the “cleaved PARP positive nuclei fraction” value amounted to 75.1%.
Take `CCCCCCCCCCCCCCCCCCOP(=O)([O-])OC1CC[N+](C)(C)CC1` [Perifosine] + COc1ccc2c(c1)CCC1C2CCC2(C)C(NCCCCCCN3C(=O)C=CC3=O)CCC12 [U73122] (first compound 0.4 µM, partner dose 0.4 µM): the “cleaved PARP positive nuclei fraction” value was found to be 53.4%.
With `Cc1cn(-c2cc(NC(=O)c3ccc(C)c(Nc4nccc(-c5cccnc5)n4)c3)cc(C(F)(F)F)c2)cn1` [nilotinib] + Cc1ccc(NC(=O)c2cccc(N(C)C)c2)cc1NC(=O)c1ccc(O)cc1 [ZM336372] (first compound 0.2 µM, partner dose 2 µM), the “cleaved PARP positive nuclei fraction” value is 53.9%.
Take `CC[C@]1(O)C[C@H]2CN(CCc3c([nH]c4ccccc34)[C@@](C(=O)OC)(c3cc4c(cc3OC)N(C=O)[C@H]3[C@@](O)(C(=O)OC)[C@H](OC(C)=O)[C@]5(CC)C=CCN6CC[C@]43[C@@H]65)C2)C1` [vincristine] + O=C(Nc1cccc(Cl)c1)Nc1ncc(CCNc2ncnc3ccsc23)s1 [SNS314] (first compound 0.0001 µM, partner dose 0.0008 µM): the “cleaved PARP positive nuclei fraction” value worked out at 113%.
The figure for `Cc1ccc(Nc2nccc(N(C)c3ccc4c(C)n(C)nc4c3)n2)cc1S(N)(=O)=O` [Pazopanib] + O=C(Nc1cccc(Cl)c1)Nc1ncc(CCNc2ncnc3ccsc23)s1 [SNS314] (first compound 0.4 µM, partner dose 0.0008 µM) is 109%; for `CC[C@]1(O)C[C@H]2CN(CCc3c([nH]c4ccccc34)[C@@](C(=O)OC)(c3cc4c(cc3OC)N(C=O)[C@H]3[C@@](O)(C(=O)OC)[C@H](OC(C)=O)[C@]5(CC)C=CCN6CC[C@]43[C@@H]65)C2)C1` [vincristine] + COc1ccc(-c2ccc3c(N4CCOCC4)nc(N4C[C@@H](C)O[C@@H](C)C4)nc3n2)cc1CO [KU0063794] (first compound 0.0001 µM, partner dose 0.02 µM) it is 118%; for `O=c1[nH]nc(Sc2ncc([N+](=O)[O-])s2)n1-c1ccc2c(c1)OCCO2` + COc1cc(Nc2ncc(F)c(Nc3ccc4c(n3)NC(=O)C(C)(C)O4)n2)cc(OC)c1OC [Tamatinib] (first compound 0.2 µM, partner dose 0.4 µM) it is 125%.
For `O=C(/C=C/c1cccnc1)NCCCCC1CCN(C(=O)c2ccccc2)CC1` + Cc1cc(N2CCOCC2)cc2[nH]c(-c3c(NC[C@@H](O)c4cccc(Cl)c4)cc[nH]c3=O)nc12 [BMS536924] (first compound 0.01 µM, partner dose 0.2 µM), the “cleaved PARP positive nuclei fraction” value came out at 233%.
The figure for `Cc1cc(Nc2cc(N3CCN(C)CC3)nc(Sc3ccc(NC(=O)C4CC4)cc3)n2)n[nH]1` [Tozasertib] + CC1(C)NC(=O)N(c2ccc([N+](=O)[O-])c(C(F)(F)F)c2)C1=O [nilutamide] (first compound 0.006 µM, partner dose 1 µM) is 236%.
Take `O=C(/C=C/c1cccnc1)NCCCCC1CCN(C(=O)c2ccccc2)CC1` + O=S(=O)(c1ccccc1)N(CC(F)(F)F)c1ccc(C(O)(C(F)(F)F)C(F)(F)F)cc1 [T0901317] (first compound 0.01 µM, partner dose 1.4 µM): the “cleaved PARP positive nuclei fraction” value was found to be 11%.
For `CC[C@]1(O)C[C@H]2CN(CCc3c([nH]c4ccccc34)[C@@](C(=O)OC)(c3cc4c(cc3OC)N(C=O)[C@H]3[C@@](O)(C(=O)OC)[C@H](OC(C)=O)[C@]5(CC)C=CCN6CC[C@]43[C@@H]65)C2)C1` [vincristine] + Cc1cc(N2CCOCC2)cc2[nH]c(-c3c(NC[C@@H](O)c4cccc(Cl)c4)cc[nH]c3=O)nc12 [BMS536924] (first compound 0.0001 µM, partner dose 0.2 µM), the “cleaved PARP positive nuclei fraction” value turned out to be 1100%.
On to `O=c1[nH]nc(Sc2ncc([N+](=O)[O-])s2)n1-c1ccc2c(c1)OCCO2` + O=c1cc(-c2cccc3c2Sc2ccccc2S3)oc(N2CCOCC2)c1 [KU55933] (first compound 0.2 µM, partner dose 1 µM), for which the “cleaved PARP positive nuclei fraction” value amounted to 79.5%.
For `COc1cc([C@@H]2c3cc4c(cc3[C@@H](O[C@@H]3O[C@@H]5CO[C@@H](C)O[C@H]5[C@H](O)[C@H]3O)[C@H]3COC(=O)[C@H]23)OCO4)cc(OC)c1O` [etoposide] + O=C1NC(=O)/C(=C/c2ccc(-c3ccc(F)cc3O)o2)S1 [AS252424] (first compound 0.02 µM, partner dose 1 µM), the “cleaved PARP positive nuclei fraction” value is 53.9%.
The figure for `Cc1cn(-c2cc(NC(=O)c3ccc(C)c(Nc4nccc(-c5cccnc5)n4)c3)cc(C(F)(F)F)c2)cn1` [nilotinib] + CCCCCCCCCCCC1=C(O)C(=O)C=C(O)C1=O [Embelin] (first compound 0.2 µM, partner dose 1.2 µM) is 296%; for `O=c1[nH]nc(Sc2ncc([N+](=O)[O-])s2)n1-c1ccc2c(c1)OCCO2` + CCCCCCCCCCCC1=C(O)C(=O)C=C(O)C1=O [Embelin] (first compound 0.2 µM, partner dose 1.2 µM) it is 61%; for `O=c1[nH]nc(Sc2ncc([N+](=O)[O-])s2)n1-c1ccc2c(c1)OCCO2` + O=C(Nc1cccc(Cl)c1)Nc1ncc(CCNc2ncnc3ccsc23)s1 [SNS314] (first compound 0.2 µM, partner dose 0.0008 µM) it is 207%.
As for `CCCCCCCCCCCCCCCCCCOP(=O)([O-])OC1CC[N+](C)(C)CC1` [Perifosine] + NC(=O)Nc1cc(-c2cccc(F)c2)sc1C(=O)N[C@H]1CCCNC1 [AZD7762] (first compound 0.4 µM, partner dose 0.02 µM), the “cleaved PARP positive nuclei fraction” value came out at 254%.
In the case of `COc1cc([C@@H]2c3cc4c(cc3[C@@H](O[C@@H]3O[C@@H]5CO[C@@H](C)O[C@H]5[C@H](O)[C@H]3O)[C@H]3COC(=O)[C@H]23)OCO4)cc(OC)c1O` [etoposide] + COc1cc(N2CCC(N3CCN(C)CC3)CC2)ccc1Nc1ncc(Cl)c(Nc2ccccc2S(=O)(=O)C(C)C)n1 [NVP-TAE684] (first compound 0.02 µM, partner dose 0.08 µM), the “cleaved PARP positive nuclei fraction” value turned out to be 64.5%.
On to `Cc1cc(Nc2cc(N3CCN(C)CC3)nc(Sc3ccc(NC(=O)C4CC4)cc3)n2)n[nH]1` [Tozasertib] + COc1cc(N2CCC(N3CCN(C)CC3)CC2)ccc1Nc1ncc(Cl)c(Nc2ccccc2S(=O)(=O)C(C)C)n1 [NVP-TAE684] (first compound 0.006 µM, partner dose 0.08 µM), for which the “cleaved PARP positive nuclei fraction” value is 148%.
Consider `CCCCCCCCCCCCCCCCCCOP(=O)([O-])OC1CC[N+](C)(C)CC1` [Perifosine] + O=S(=O)(c1ccccc1)N(CC(F)(F)F)c1ccc(C(O)(C(F)(F)F)C(F)(F)F)cc1 [T0901317] (first compound 0.4 µM, partner dose 1.4 µM), for which the “cleaved PARP positive nuclei fraction” value worked out at 85.4%.
Consider `CC[C@]1(O)C[C@H]2CN(CCc3c([nH]c4ccccc34)[C@@](C(=O)OC)(c3cc4c(cc3OC)N(C=O)[C@H]3[C@@](O)(C(=O)OC)[C@H](OC(C)=O)[C@]5(CC)C=CCN6CC[C@]43[C@@H]65)C2)C1` [vincristine] + Cn1cncc1[C@@](N)(c1ccc(Cl)cc1)c1ccc2c(c1)c(-c1cccc(Cl)c1)cc(=O)n2C [tipifarnib] (first compound 0.0001 µM, partner dose 0.01 µM), for which the “cleaved PARP positive nuclei fraction” value is 133%.
For `Cc1cn(-c2cc(NC(=O)c3ccc(C)c(Nc4nccc(-c5cccnc5)n4)c3)cc(C(F)(F)F)c2)cn1` [nilotinib] + CN(NC(=O)CC(=O)NN(C)C(=S)c1ccccc1)C(=S)c1ccccc1 [STA4783] (first compound 0.2 µM, partner dose 0.006 µM), the “cleaved PARP positive nuclei fraction” value was 69%.
